These results are taken from the supplement of paper PMC4604168 (melanoma cell lines).

Some of the results follow. Many values rest on one well or one pass, so single values are uncertain.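 The apoptosis fraction was the count of cleaved-PARP antibody-stained nuclei relative to all DNA-stained nuclei, imaged in 1,536-well plates. Screening doses were set so most cells survived, and baseline and induced cleaved-PARP levels vary greatly across cell lines.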

This assay concerns WM1716. The assay can be described thus: cleaved PARP positive nuclei fraction relative to DMSO control; melanoma cells; higher = more apoptosis. Particulars: library dose: low library concentration; 72 h.
Take `Cn1cnc2c(F)c(Nc3ccc(Br)cc3Cl)c(C(=O)NOCCO)cc21` [selumetinib] + O=C(Nc1cccc(Cl)c1)Nc1ncc(CCNc2ncnc3ccsc23)s1 [SNS314] (first compound 0.015 µM, partner dose 0.0008 µM): the “cleaved PARP positive nuclei fraction” value is 42.2%.
As for `Cn1sc(=O)n(Cc2ccccc2)c1=O` + CNC(=O)c1cc(Oc2ccc(NC(=O)Nc3ccc(Cl)c(C(F)(F)F)c3)cc2)ccn1 [sorafenib] (first compound 0.4 µM, partner dose 0.4 µM), the figure is 38.5%; as for `NC(=O)c1ccc(N(C(N)=O)c2c(F)cccc2F)nc1-c1ccc(F)cc1F` + CC(C)C[C@H](NC(=O)[C@H](Cc1ccccc1)NC(=O)c1cnccn1)B(O)O [Bortezomib] (first compound 0.4 µM, partner dose 0.001 µM), 63.5%.
As for `NC(=O)c1ccc(N(C(N)=O)c2c(F)cccc2F)nc1-c1ccc(F)cc1F` + C[C@]1(O)C[C@@H](c2nc(-c3ccc4ccc(-c5ccccc5)nc4c3)c3c(N)nccn32)C1 [OSI906] (first compound 0.4 µM, partner dose 0.4 µM), the figure is 24.8%; as for `CS(=O)(=O)c1ccc(C(=O)Nc2ccc(Cl)c(-c3ccccn3)c2)c(Cl)c1` [vismodegib] + COCC[n+]1c2c(n(Cc3cnccn3)c1C)C(=O)c1ccccc1C2=O [YM155] (first compound 1 µM, partner dose 0.0004 µM), 168%.
As for `Cn1sc(=O)n(Cc2ccccc2)c1=O` + Cn1cncc1[C@@](N)(c1ccc(Cl)cc1)c1ccc2c(c1)c(-c1cccc(Cl)c1)cc(=O)n2C [tipifarnib] (first compound 0.4 µM, partner dose 0.01 µM), the figure is 114%; as for `CCN(CC)CCNC(=O)c1c(C)[nH]c(/C=C2\C(=O)Nc3ccc(F)cc32)c1C` [sunitinib] + CC(C)(C)c1cnc(CSc2cnc(NC(=O)C3CCNCC3)s2)o1 [SNS-032] (first compound 0.4 µM, partner dose 0.01 µM), 70.5%.
Regarding `CC1(C)CCC(c2ccc(Cl)cc2)=C(CN2CCN(c3ccc(C(=O)NS(=O)(=O)c4ccc(N[C@H](CCN5CCOCC5)CSc5ccccc5)c(S(=O)(=O)C(F)(F)F)c4)cc3)CC2)C1` + C=C(c1ccc(C(=O)O)cc1)c1cc2c(cc1C)C(C)(C)CCC2(C)C [Bexarotene] (first compound 0.4 µM, partner dose 2 µM), the “cleaved PARP positive nuclei fraction” value was determined as 111%.
For `Cn1sc(=O)n(Cc2ccccc2)c1=O` + CCN(CC)CCCCNc1ncc2cc(-c3cc(OC)cc(OC)c3)c(NC(=O)NC(C)(C)C)nc2n1 [PD173074] (first compound 0.4 µM, partner dose 0.1 µM), the “cleaved PARP positive nuclei fraction” value came to 139%.
For the compound `CC1(C)CCC(c2ccc(Cl)cc2)=C(CN2CCN(c3ccc(C(=O)NS(=O)(=O)c4ccc(N[C@H](CCN5CCOCC5)CSc5ccccc5)c(S(=O)(=O)C(F)(F)F)c4)cc3)CC2)C1` + Cn1sc(=O)n(Cc2ccccc2)c1=O [TDZD-8] (first compound 0.4 µM, partner dose 0.4 µM), the “cleaved PARP positive nuclei fraction” value is 98.6%.
As for `C[C@]1(O)C[C@@H](c2nc(-c3ccc4ccc(-c5ccccc5)nc4c3)c3c(N)nccn32)C1` + Cc1cc(Nc2cc(N3CCN(C)CC3)nc(/C=C/c3ccccc3)n2)n[nH]1 [ENMD2076] (first compound 0.4 µM, partner dose 0.04 µM), the figure is 198%.
The figure for `C[C@@H](N)c1ccc(C(=O)Nc2ccnc3[nH]ccc23)cc1` + CN(C)S(=O)(=O)c1ccc2c(c1)/C(=C/c1cc3c([nH]1)CCCC3)C(=O)N2 [SU6656] (first compound 0.4 µM, partner dose 0.4 µM) is 106%.
As for `NC1(c2ccc(-c3nc4ccn5c(=O)[nH]nc5c4cc3-c3ccccc3)cc2)CCC1` + CN(NC(=O)CC(=O)NN(C)C(=S)c1ccccc1)C(=S)c1ccccc1 [STA4783] (first compound 0.4 µM, partner dose 0.006 µM), the figure is 338%; as for `Cn1sc(=O)n(Cc2ccccc2)c1=O` + CC(C)(C)c1cnc(CSc2cnc(NC(=O)C3CCNCC3)s2)o1 [SNS-032] (first compound 0.4 µM, partner dose 0.01 µM), 124%; as for `Cn1cnc2c(F)c(Nc3ccc(Br)cc3Cl)c(C(=O)NOCCO)cc21` [selumetinib] + COc1cc(N2CCC(N3CCN(C)CC3)CC2)ccc1Nc1ncc(Cl)c(Nc2ccccc2S(=O)(=O)C(C)C)n1 [NVP-TAE684] (first compound 0.015 µM, partner dose 0.08 µM), 80.7%.
As to `Cn1cnc2c(F)c(Nc3ccc(Br)cc3Cl)c(C(=O)NOCCO)cc21` [selumetinib] + O=S(=O)(c1ccccc1)N(CC(F)(F)F)c1ccc(C(O)(C(F)(F)F)C(F)(F)F)cc1 [T0901317] (first compound 0.015 µM, partner dose 1.4 µM), the “cleaved PARP positive nuclei fraction” value was found to be 54.7%.
The figure for `C[C@@H](N)c1ccc(C(=O)Nc2ccnc3[nH]ccc23)cc1` + c1cc(-c2cnn3cc(-c4ccc(OCCN5CCCCC5)cc4)cnc23)ccn1 [Dorsomorphin] (first compound 0.4 µM, partner dose 0.4 µM) is 108%.
For the compound `NC1(c2ccc(-c3nc4ccn5c(=O)[nH]nc5c4cc3-c3ccccc3)cc2)CCC1` + Cn1c(=O)n(-c2ccc(C(C)(C)C#N)cc2)c2c3cc(-c4cnc5ccccc5c4)ccc3ncc21 [NVP-BEZ235] (first compound 0.4 µM, partner dose 0.004 µM), the “cleaved PARP positive nuclei fraction” value was found to be 123%.
For `NC(=O)c1ccc(N(C(N)=O)c2c(F)cccc2F)nc1-c1ccc(F)cc1F` + CC(C)(C)c1cnc(CSc2cnc(NC(=O)C3CCNCC3)s2)o1 [SNS-032] (first compound 0.4 µM, partner dose 0.01 µM), the “cleaved PARP positive nuclei fraction” value came to 256%.
The figure for `C[C@]1(O)C[C@@H](c2nc(-c3ccc4ccc(-c5ccccc5)nc4c3)c3c(N)nccn32)C1` + CNC(=O)c1cc(Oc2ccc(NC(=O)Nc3ccc(Cl)c(C(F)(F)F)c3)cc2)ccn1 [sorafenib] (first compound 0.4 µM, partner dose 0.4 µM) is 25.9%.
The figure for `Cn1sc(=O)n(Cc2ccccc2)c1=O` + CCc1ccc(CCOc2ccc(CC3SC(=O)NC3=O)cc2)nc1 [pioglitazone] (first compound 0.4 µM, partner dose 2 µM) is 101%.
